From patent US5260257A, “Thermal transfer sheet” (Dai Nippon Printing Co., Ltd., priority 1991, dated 1993)

Assays:
[1] = surface appearance of sheet (naked eye); settings: Table D1
[2] = reflection density of print (densitometer TR-310, X-Rite); settings: Table D1; 10.5 V, maximum pulse width 16 msec
[3] = recording density (densitometer RD-918, Macbeth); settings: 10 V, 4.0 msec
[4] = dye migration resistance of recorded image (70° C., 48 hr, sharpness and coloration of white paper); design: key: .circleincircle.: no change in the sharpness was observed and rubbing of the surface with white paper gave rise to no coloration of the white paper; .largecircle.: the sharpness of the image was slightly lost and the white paper was slightly colored; Δ: the sharpness of the image was lost and the white paper was colored; X: the image became unclear and the white paper was remarkably colored

CCN(CC)c1ccc(N=C2C=C(NC(C)=O)C(=O)C(Cl)=C2C)c(C)c1 [Comp. Ex. D1]
surface appearance of sheet [1]: rough surface
Recording density [2]: 1.85

CCN(CC)c1ccc(N=C2C=C(NC(=O)C3CCCCC3)C(=O)C(Cl)=C2C)c(C)c1 [Comp. Ex. D2]
surface appearance of sheet [1]: rough surface
Recording density [2]: 2.07

CCN(Cc1ccccc1)c1ccc(N=C2C=C(NC(=O)C3=CC4C=CC3C4)C(=O)C=C2NC(C)=O)cc1 (stereo not shown) [Dye No. 13 in Table C1]
Recording density ([3]; Table C2, dyes of Table C1): 1.71
Dye migration resistance ([4]; Table C2, dyes of Table C1): .largecircle.

CCN(CCNS(C)(=O)=O)c1ccc(N=C2C=C(NC(=O)C3CC=CC3)C(=O)C=C2NS(C)(=O)=O)c(C)c1 [Dye No. 14 in Table B1]
Recording density ([3]; Table B2, dyes of Table B1): 1.65
Dye migration resistance ([4]; Table B2, dyes of Table B1): .largecircle.

CCN(CCC#N)c1ccc(N=C2C=C(NC(=O)C3=CC4C=CC3C4)C(=O)C(Cl)=C2C)c(NS(C)(=O)=O)c1 (stereo not shown) [Dye No. 14 in Table C1]
Recording density ([3]; Table C2, dyes of Table C1): 1.61
Dye migration resistance ([4]; Table C2, dyes of Table C1): .largecircle.

CCN(c1ccccc1)c1ccc(N=C2C=C(NC(=O)C3CC=CC3)C(=O)C=C2NC(=O)NC)c(Cl)c1 [Dye No. 15 in Table B1]
Recording density ([3]; Table B2, dyes of Table B1): 1.70
Dye migration resistance ([4]; Table B2, dyes of Table B1): .largecircle.

CCN(c1ccccc1)c1ccc(N=C2C=C(NC(=O)C3=CC4C=CC3C4)C(=O)C=C2NC(=O)NC)c(Cl)c1 (stereo not shown) [Dye No. 15 in Table C1]
Recording density ([3]; Table C2, dyes of Table C1): 1.62
Dye migration resistance ([4]; Table C2, dyes of Table C1): .largecircle.

CCN(c1ccccc1)c1ccc(N=C2C=C(NC(=O)C3=CCCC3)C(=O)C=C2NC(=O)NC)c(Cl)c1 [Dye No. 17 in Table B1]
Recording density ([3]; Table B2, dyes of Table B1): 1.64
Dye migration resistance ([4]; Table B2, dyes of Table B1): .largecircle.

CCOCCN(CC)c1ccc(N=C2C=C(NC(=O)C3CC4CCC3C4)C(=O)C(Cl)=C2C)c(C)c1 (stereo not shown) [Dye No. 17 in Table C1]
Recording density ([3]; Table C2, dyes of Table C1): 1.72
Dye migration resistance ([4]; Table C2, dyes of Table C1): .largecircle.

CCN(CC)c1ccc(N=C2C=C(NC(=O)C3=CCC=CC3)C(=O)C(Cl)=C2C)cc1 [Dye No. 18 in Table B1]
Recording density ([3]; Table B2, dyes of Table B1): 1.84
Dye migration resistance ([4]; Table B2, dyes of Table B1): .largecircle.

CCN(CC)c1ccc(N=C2C=C(NC(=O)C3CC4C=C(C)C3C4)C(=O)C(Cl)=C2C)c(C)c1 (stereo not shown) [Dye No. 18 in Table C1]
Recording density ([3]; Table C2, dyes of Table C1): 1.79
Dye migration resistance ([4]; Table C2, dyes of Table C1): .largecircle.

CCN(CCOC)c1ccc(N=C2C=C(NC(=O)C3=CCC=CC3)C(=O)C=C2NC(C)=O)c(NC(C)=O)c1 [Dye No. 19 in Table B1]
Recording density ([3]; Table B2, dyes of Table B1): 1.66
Dye migration resistance ([4]; Table B2, dyes of Table B1): .largecircle.

CCOc1cc(N(CC)CC)c(OCC)cc1N=C1C=C(NC(=O)C2CC3C=C(C)C2C3)C(=O)C(Cl)=C1C (stereo not shown) [Dye No. 19 in Table C1]
Recording density ([3]; Table C2, dyes of Table C1): 1.63
Dye migration resistance ([4]; Table C2, dyes of Table C1): .largecircle.

CCN(CC)c1ccc(N=C2C=C(NC(=O)C3=CCC=CC3)C(=O)C=C2NC(C)=O)c(C)c1 [Dye No. 20 in Table B1]
Recording density ([3]; Table B2, dyes of Table B1): 1.82
Dye migration resistance ([4]; Table B2, dyes of Table B1): .largecircle.

CCN(CC)c1ccc(N=C2C=C(NC(=O)C3CC4C=C(C)C3C4)C(=O)C=C2NC(C)=O)c(C)c1 (stereo not shown) [Dye No. 20 in Table C1]
Recording density ([3]; Table C2, dyes of Table C1): 1.78
Dye migration resistance ([4]; Table C2, dyes of Table C1): .largecircle.

CCN(CCO)c1ccc(N=C2C=C(NC(=O)C3=CCC=CC3)C(=O)C(Cl)=C2C)c(C)c1 [Dye No. 21 in Table B1]
Recording density ([3]; Table B2, dyes of Table B1): 1.83
Dye migration resistance ([4]; Table B2, dyes of Table B1): .largecircle.

CCN(CC)c1ccc(N=C2C=C(NC(=O)C3CC4C=CC3O4)C(=O)C(Cl)=C2C)c(C)c1 (stereo not shown) [Dye No. 21 in Table C1]
Recording density ([3]; Table C2, dyes of Table C1): 1.79
Dye migration resistance ([4]; Table C2, dyes of Table C1): .largecircle.

CCOc1cc(N(CC)CC)ccc1N=C1C=C(NC(=O)C2CC=CCC2)C(=O)C(Cl)=C1C (stereo not shown) [Dye No. 22 in Table B1]
Recording density ([3]; Table B2, dyes of Table B1): 1.66
Dye migration resistance ([4]; Table B2, dyes of Table B1): .largecircle.

CCN(CC)c1ccc(N=C2C=C(NC(=O)C3CC4C=CC3S4)C(=O)C(Cl)=C2C)c(C)c1 (stereo not shown) [Dye No. 22 in Table C1]
Recording density ([3]; Table C2, dyes of Table C1): 1.71
Dye migration resistance ([4]; Table C2, dyes of Table C1): .largecircle.

CCN(CC)c1ccc(N=C2C=C(NC(=O)C3CC4C=CC3S4)C(=O)C=C2NC(C)=O)c(C)c1 (stereo not shown) [Dye No. 23 in Table C1]
Recording density ([3]; Table C2, dyes of Table C1): 1.70
Dye migration resistance ([4]; Table C2, dyes of Table C1): .largecircle.

CCN(CC)c1ccc(N=C2C=C(NC(=O)C3CC4C=CC3N4C)C(=O)C(Cl)=C2C)c(C)c1 (stereo not shown) [Dye No. 24 in Table C1]
Recording density ([3]; Table C2, dyes of Table C1): 1.73
Dye migration resistance ([4]; Table C2, dyes of Table C1): .largecircle.

CCN(CC)c1ccc(N=C2C=C(NC(=O)C3CC3)C(=O)C(Cl)=C2C)c(C)c1 [compound 1]
Recording density ([3]; Table A2, dyes of Table A1): 1.95
Dye migration resistance ([4]; Table A2, dyes of Table A1): Δ

CCN(CCO)c1ccc(N=C2C=C(NC(=O)C3CC3)C(=O)C(Cl)=C2C)c(C)c1 [compound 2]
Recording density ([3]; Table A2, dyes of Table A1): 1.91
Dye migration resistance ([4]; Table A2, dyes of Table A1): .largecircle.

CCN(CC)c1ccc(N=C2C=C(NC(=O)C3CC3)C(=O)C=C2NC(C)=O)c(C)c1 [compound 3]
Recording density ([3]; Table A2, dyes of Table A1): 1.92
Dye migration resistance ([4]; Table A2, dyes of Table A1): .largecircle.

CCOc1cc(N(CC)CC)ccc1N=C1C=CC(=O)C(NC(=O)C2CC2)=C1 [compound 4]
Recording density ([3]; Table A2, dyes of Table A1): 1.97
Dye migration resistance ([4]; Table A2, dyes of Table A1): Δ

CCOc1cc(N(CC)Cc2ccccc2)ccc1N=C1C=C(NC(=O)C2CC2)C(=O)C=C1NC(C)=O [compound 5]
Recording density ([3]; Table A2, dyes of Table A1): 1.81
Dye migration resistance ([4]; Table A2, dyes of Table A1): .largecircle.

CCN(CCNS(C)(=O)=O)c1ccc(N=C2C=C(NC(=O)C3CC3)C(=O)C=C2NC(C)=O)c(C)c1 [compound 6]
Recording density ([3]; Table A2, dyes of Table A1): 1.82
Dye migration resistance ([4]; Table A2, dyes of Table A1): .largecircle.

CCN(CCC#N)c1ccc(N=C2C=C(NC(=O)C3CC3)C(=O)C=C2NS(C)(=O)=O)c(NC(C)=O)c1 [compound 7]
Recording density ([3]; Table A2, dyes of Table A1): 1.79
Dye migration resistance ([4]; Table A2, dyes of Table A1): .largecircle.

CCN(c1ccccc1)c1ccc(N=C2C=C(NC(=O)C3CC3)C(=O)C(Cl)=C2C)c(Cl)c1 [compound 8]
Recording density ([3]; Table A2, dyes of Table A1): 1.85
Dye migration resistance ([4]; Table A2, dyes of Table A1): .largecircle.

CCN(CC)c1ccc(N=C2C=CC(=O)C(NC(=O)C3CC3)=C2)c(NC(C)=O)c1 [compound 9]
Recording density ([3]; Table A2, dyes of Table A1): 1.93
Dye migration resistance ([4]; Table A2, dyes of Table A1): Δ

CCN(CCO)c1ccc(N=C2C=C(NC(=O)C3CC3)C(=O)C=C2NC(C)=O)c(NS(C)(=O)=O)c1 [compound 10]
Recording density ([3]; Table A2, dyes of Table A1): 1.88
Dye migration resistance ([4]; Table A2, dyes of Table A1): .largecircle.

CCN(CC)c1ccc(N=C2C=C(NC(=O)C3CC3)C(=O)C(Cl)=C2C)cc1 [compound 11]
Recording density ([3]; Table A2, dyes of Table A1): 1.98
Dye migration resistance ([4]; Table A2, dyes of Table A1): .largecircle.

CCCCC1CC(C(=O)NC2=CC(=Nc3ccc(N(CC)CC)cc3C)C(C)=C(Cl)C2=O)C1 (stereo not shown) [compound 12]
Recording density ([3]; Table A2, dyes of Table A1): 1.83
Dye migration resistance ([4]; Table A2, dyes of Table A1): .largecircle.

CCN(Cc1ccccc1)c1ccc(N=C2C=C(NC(=O)C3CCCC3)C(=O)C=C2NC(C)=O)c(C)c1 [compound 13]
Recording density ([3]; Table A2, dyes of Table A1): 1.86
Dye migration resistance ([4]; Table A2, dyes of Table A1): .largecircle.

CCN(CC)c1ccc(N=C2C=C(NC(=O)C3CCCC3)C(=O)C(Cl)=C2C)c(NC(C)=O)c1 [compound 14]
Recording density ([3]; Table A2, dyes of Table A1): 1.85
Dye migration resistance ([4]; Table A2, dyes of Table A1): .largecircle.

CCN(CC)c1ccc(N=C2C=C(NC(=O)C3CCCC3)C(=O)C(Cl)=C2C)c(C)c1 [compound 15]
Recording density ([3]; Table A2, dyes of Table A1): 1.82
Dye migration resistance ([4]; Table A2, dyes of Table A1): .largecircle.

CCN(CC)c1ccc(N=C2C=C(NC(=O)C3CCCC3)C(=O)C(Cl)=C2C)cc1 [compound 17]
Recording density ([3]; Table A2, dyes of Table A1): 1.90
Dye migration resistance ([4]; Table A2, dyes of Table A1): .largecircle.

CCN(CCCl)c1ccc(N=C2C=C(NC(=O)C3CCCC3)C(=O)C=C2NC(C)=O)c(NC(=O)NC)c1 [compound 18]
Recording density ([3]; Table A2, dyes of Table A1): 1.70
Dye migration resistance ([4]; Table A2, dyes of Table A1): .largecircle.

CCN(CC)c1ccc(N=C2C=C(NC(=O)c3ccsc3)C(=O)C(Cl)=C2C)c(C)c1 [compound 19]
Recording density ([3]; Table A2, dyes of Table A1): 1.83
Dye migration resistance ([4]; Table A2, dyes of Table A1): .largecircle.

CCN(CC)c1ccc(N=C2C=C(NC(=O)c3ccsc3)C(=O)C(Cl)=C2C)c(NC(C)=O)c1 [compound 20]
Recording density ([3]; Table A2, dyes of Table A1): 1.72
Dye migration resistance ([4]; Table A2, dyes of Table A1): .largecircle.

CCN(CC)c1ccc(N=C2C=C(NC(=O)c3ccsc3)C(=O)C=C2NC(C)=O)c(C)c1 [compound 21]
Recording density ([3]; Table A2, dyes of Table A1): 1.76
Dye migration resistance ([4]; Table A2, dyes of Table A1): .largecircle.

CCN(CCOC)c1ccc(N=C2C=C(NC(=O)c3ccsc3)C(=O)C(Cl)=C2C)c(NC(C)=O)c1 [compound 22]
Recording density ([3]; Table A2, dyes of Table A1): 1.71
Dye migration resistance ([4]; Table A2, dyes of Table A1): .largecircle.

CCN(CC)c1ccc(N=C2C=CC(=O)C(NC(=O)C3CC=CCC3)=C2)c(C)c1 (stereo not shown) [compound 23]
Recording density ([3]; Table B2, dyes of Table B1): 1.92
Dye migration resistance ([4]; Table B2, dyes of Table B1): Δ

CCN(CCNS(C)(=O)=O)c1ccc(N=C2C=C(NC(=O)C3CC=CCC3)C(=O)C(Cl)=C2C)c(C)c1 (stereo not shown) [compound 24]
Recording density ([3]; Table B2, dyes of Table B1): 1.60
Dye migration resistance ([4]; Table B2, dyes of Table B1): .largecircle.
